PMC3264577, “RINL, Guanine Nucleotide Exchange Factor Rab5-Subfamily, Is Involved in the EphA8-Degradation Pathway with Odin” (PLoS ONE, 2012)
These are yes or no findings as the source states them, for the method shown. Binding seen in cells or lysates may run through a third protein. A result given as binding can be weak or reduced; the word gives no strength. Sequences can lack the tags named with a protein.

What was measured:
myc-odin, wild type = molecular target: T1, myc-odin, wild type (UniProt Q92625); assay: co-IP; myc-odin and V5-RINL co-transfected with FLAG-tagged constitutively active Src or mock into HEK293T; lysates immunoprecipitated with anti-myc
T1 sequence: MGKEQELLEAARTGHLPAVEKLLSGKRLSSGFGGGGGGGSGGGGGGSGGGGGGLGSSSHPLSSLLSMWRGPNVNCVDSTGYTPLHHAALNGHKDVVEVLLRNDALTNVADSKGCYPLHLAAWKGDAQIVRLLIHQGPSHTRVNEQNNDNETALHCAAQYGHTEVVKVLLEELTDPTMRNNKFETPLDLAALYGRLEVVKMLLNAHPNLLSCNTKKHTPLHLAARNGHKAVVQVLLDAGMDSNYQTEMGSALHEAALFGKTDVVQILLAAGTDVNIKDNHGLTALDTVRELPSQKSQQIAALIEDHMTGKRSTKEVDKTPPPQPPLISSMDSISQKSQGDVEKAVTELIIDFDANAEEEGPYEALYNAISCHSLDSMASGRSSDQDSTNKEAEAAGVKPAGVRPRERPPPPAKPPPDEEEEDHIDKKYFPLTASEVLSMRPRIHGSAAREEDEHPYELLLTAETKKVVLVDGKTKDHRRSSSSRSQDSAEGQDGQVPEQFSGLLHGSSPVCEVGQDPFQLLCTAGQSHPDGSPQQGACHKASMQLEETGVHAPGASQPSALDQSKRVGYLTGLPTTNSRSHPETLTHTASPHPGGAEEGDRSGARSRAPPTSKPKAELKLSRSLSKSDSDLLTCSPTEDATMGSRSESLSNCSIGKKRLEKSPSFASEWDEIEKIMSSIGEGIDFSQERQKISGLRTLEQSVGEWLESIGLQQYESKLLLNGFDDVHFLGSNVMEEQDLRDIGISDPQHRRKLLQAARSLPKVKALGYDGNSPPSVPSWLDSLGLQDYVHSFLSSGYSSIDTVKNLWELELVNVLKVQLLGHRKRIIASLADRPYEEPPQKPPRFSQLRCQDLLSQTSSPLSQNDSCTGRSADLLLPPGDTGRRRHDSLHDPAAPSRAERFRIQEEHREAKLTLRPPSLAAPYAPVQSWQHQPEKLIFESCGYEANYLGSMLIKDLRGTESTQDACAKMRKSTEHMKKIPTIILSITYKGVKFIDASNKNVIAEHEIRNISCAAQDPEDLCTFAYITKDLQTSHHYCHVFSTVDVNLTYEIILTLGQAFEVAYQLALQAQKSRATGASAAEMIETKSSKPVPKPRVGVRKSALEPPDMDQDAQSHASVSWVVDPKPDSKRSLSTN

[1] = molecular target: T2, myc-odin, tyrosine-phosphorylated by co-expression with constitutively active Src (UniProt Q92625); assay: as above
T2 sequence (chain, phosphotyrosine (sites not named), by co-expressed constitutively active Src): T1 sequence

[2] = molecular target: FLAG-RINL-Y494A/T497A (human); assay: co-IP; FLAG-RINL wild type or point mutants co-transfected with myc-odin into HEK293T; lysates immunoprecipitated with anti-FLAG, blotted with anti-myc and anti-FLAG
[3] = molecular target: FLAG-RINL-D453A/P457A (human); assay: as above
myc-RINL (human) = assay: co-IP; HEK293T co-transfected with EphA8-FLAG, HaloTag-odin and myc-RINL or mock plasmids; lysates immunoprecipitated with anti-myc

## V5-RINL (human)
myc-odin, wild type
  binding: binds
[1]
  binding: binds

B1: myc-odin, wild type (protein, UniProt Q92625 1-1134)
chain: T1 sequence
[2]
  binding: binds
[3]
  binding: binds

B2: HaloTag-odin (protein, UniProt Q92625 1-1134)
chain: T1 sequence
myc-RINL (human)
  binding: binds
